Reference: publication doi:10.1101/2024.12.20.629439
Results are given in words; binding and its absence hold for the method and conditions named. In cells and extracts the contact can be indirect. Some results given as binding are weak or reduced against the parent protein; the word gives no strength.

Chains of the proteins cited; added tags and fusions are not shown.
UniProt P35579: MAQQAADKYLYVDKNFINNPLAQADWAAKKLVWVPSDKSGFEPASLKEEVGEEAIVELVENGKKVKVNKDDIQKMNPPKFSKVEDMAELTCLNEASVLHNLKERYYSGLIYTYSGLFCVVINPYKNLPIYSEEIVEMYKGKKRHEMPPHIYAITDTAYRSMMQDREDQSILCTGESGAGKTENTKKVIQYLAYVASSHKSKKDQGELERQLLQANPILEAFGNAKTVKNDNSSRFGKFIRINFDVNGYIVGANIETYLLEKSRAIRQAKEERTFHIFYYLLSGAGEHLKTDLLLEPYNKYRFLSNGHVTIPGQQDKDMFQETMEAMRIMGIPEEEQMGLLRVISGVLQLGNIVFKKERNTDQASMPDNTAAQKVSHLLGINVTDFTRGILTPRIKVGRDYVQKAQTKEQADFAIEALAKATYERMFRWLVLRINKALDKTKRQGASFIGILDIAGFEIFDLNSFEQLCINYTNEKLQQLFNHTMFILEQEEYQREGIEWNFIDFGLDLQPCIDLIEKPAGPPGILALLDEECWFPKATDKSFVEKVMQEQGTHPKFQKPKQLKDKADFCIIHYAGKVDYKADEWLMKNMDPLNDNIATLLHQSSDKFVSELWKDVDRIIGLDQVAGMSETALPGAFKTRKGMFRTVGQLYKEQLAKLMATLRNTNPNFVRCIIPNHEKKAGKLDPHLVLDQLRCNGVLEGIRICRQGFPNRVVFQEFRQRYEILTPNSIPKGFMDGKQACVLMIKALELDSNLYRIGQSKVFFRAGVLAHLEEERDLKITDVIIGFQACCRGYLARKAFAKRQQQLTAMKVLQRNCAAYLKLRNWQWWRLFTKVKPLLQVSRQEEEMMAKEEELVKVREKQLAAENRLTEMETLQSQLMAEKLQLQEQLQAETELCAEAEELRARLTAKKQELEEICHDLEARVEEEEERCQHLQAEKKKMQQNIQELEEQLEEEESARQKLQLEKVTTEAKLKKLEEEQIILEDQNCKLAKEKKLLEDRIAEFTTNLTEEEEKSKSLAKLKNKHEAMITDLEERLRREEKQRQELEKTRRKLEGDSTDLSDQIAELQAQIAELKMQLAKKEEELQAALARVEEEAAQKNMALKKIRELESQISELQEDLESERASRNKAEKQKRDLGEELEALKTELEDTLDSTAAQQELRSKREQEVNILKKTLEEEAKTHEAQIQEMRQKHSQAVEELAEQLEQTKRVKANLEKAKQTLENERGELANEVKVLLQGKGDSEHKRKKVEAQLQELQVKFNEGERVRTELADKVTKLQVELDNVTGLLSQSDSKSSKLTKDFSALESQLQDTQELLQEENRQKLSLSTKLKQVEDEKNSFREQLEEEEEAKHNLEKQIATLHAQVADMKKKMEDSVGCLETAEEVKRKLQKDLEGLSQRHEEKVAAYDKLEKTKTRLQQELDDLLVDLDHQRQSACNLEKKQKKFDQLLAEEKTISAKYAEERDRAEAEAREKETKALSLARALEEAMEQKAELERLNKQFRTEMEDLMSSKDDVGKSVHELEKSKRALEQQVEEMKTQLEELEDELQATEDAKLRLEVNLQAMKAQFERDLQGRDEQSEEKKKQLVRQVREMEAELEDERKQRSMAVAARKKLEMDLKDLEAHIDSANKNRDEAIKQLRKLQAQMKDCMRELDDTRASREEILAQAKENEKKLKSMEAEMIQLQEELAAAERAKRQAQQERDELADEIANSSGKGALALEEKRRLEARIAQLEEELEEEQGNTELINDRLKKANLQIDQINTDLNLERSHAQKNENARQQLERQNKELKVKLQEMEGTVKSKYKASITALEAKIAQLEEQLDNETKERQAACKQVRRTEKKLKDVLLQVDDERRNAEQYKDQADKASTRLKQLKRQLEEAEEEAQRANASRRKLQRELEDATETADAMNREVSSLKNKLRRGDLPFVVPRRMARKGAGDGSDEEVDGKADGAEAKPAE
UniProt Q13283: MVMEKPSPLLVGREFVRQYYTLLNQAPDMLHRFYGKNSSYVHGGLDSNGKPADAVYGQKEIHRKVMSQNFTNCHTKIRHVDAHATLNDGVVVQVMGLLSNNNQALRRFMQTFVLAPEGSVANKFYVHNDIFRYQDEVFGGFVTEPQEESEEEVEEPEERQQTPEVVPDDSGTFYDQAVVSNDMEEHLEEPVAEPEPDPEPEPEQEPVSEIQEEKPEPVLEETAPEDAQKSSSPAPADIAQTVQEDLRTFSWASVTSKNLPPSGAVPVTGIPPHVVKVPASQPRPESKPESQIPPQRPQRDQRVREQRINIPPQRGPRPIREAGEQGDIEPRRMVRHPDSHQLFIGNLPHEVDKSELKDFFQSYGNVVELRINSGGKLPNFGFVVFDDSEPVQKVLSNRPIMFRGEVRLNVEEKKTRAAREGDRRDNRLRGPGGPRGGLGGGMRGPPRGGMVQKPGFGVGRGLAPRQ

Target: Myosin heavy chain 9 (human (endogenous in hPASMCs)) (UniProt P35579)
Experiment: co-IP

- binding: binds
Substance: Ras GTPase-activating protein-binding protein 1 (from UniProt Q13283 1-466)
